Reference: US11946028B2, “Fibrosis model on a chip” (The Trustees of the University of Pennsylvania, priority 2015, dated 2024)
At least one compound was matched to its structure with a doubt left.

System: human lung fibroblasts
Experiment: Serum-induced fibrosis in biomimetic five-layer lung fibrosis model
Type: cell-based
Details: 2 μM RA (0.2% serum) or 10 μM RA (2% serum), FIG. 21
Text: The first and second channel slabs and the chamber slab of the model were formed using soft lithography techniques, in which the PDMS mixture was poured over the mold, and the slabs were allowed to cure. The microchannels were etched into each of the channel slabs, with the dimensions of 10 mm×1 mm×0.15 mm (length×width×height). The chamber was etched into the chamber slab, with the dimensions of 6 mm×3 mm×1 mm (length×width×height). See FIG. 9 for a picture of the five-layer model and FIG. 2A-2B for a schematic of the five-layer model.
Next, the cellular physiology of the cell-lined fluidic channels with the gel layer of the five-layer model was examined (FIG. 11). In this instance, the upper channel contained human lung endothelial cells cultured with commercially available medium from the supplying vendor of the cells. The lower channel contained small airway epithelial cells with similar specific medium, both from same vendor. The gel was created by adding collagen to physiological aqueous buffer at a concentration of 2 mg/ml and kept at 4° C. Human lung fibroblasts (100 K cells/ml) were added to the gel during the liquid phase. The side of the membranes facing the chamber slab were treated with sulfo-sanpah to promote collagen/ECM anchorage. The lower channel slab, lower membrane, and chamber slab were stacked. The gel was then pipetted into the chamber. […]

## CC1=C(/C=C/C(C)=C/C=C/C(C)=C/C(=O)O)C(C)(C)CCC1 [RA, retinoic acid]
  effect on serum-induced fibrotic response: inhibited serum-induced fibrotic response
Listed as retinoic acid
  effect on serum-induced fibrotic response: reduction in serum-induce fibrosis
